Assay [1] deals with Flag-TRF2 (Telomeric repeat-binding factor 2), wild type (not stated (human or mouse cDNA cloned)) (UniProt Q15554). In words: affinity purification with mass spectrometry; IP-MS with Flag-TRF2 and Flag-vector as baits; one representative experiment.
Assay [2] deals with GST-RAP1^WT (Repressor/activator protein 1) (UniProt Q9NYB0). The experiment in a line: affinity purification with mass spectrometry; GST pull-down from 293F cell lysates with GST-RAP1^WT and GST-RAP1^ΔBRCT as baits, then mass spectrometry; only the target purified.

Amino acid sequences for entries named in this document (tags omitted).
UniProt Q15554: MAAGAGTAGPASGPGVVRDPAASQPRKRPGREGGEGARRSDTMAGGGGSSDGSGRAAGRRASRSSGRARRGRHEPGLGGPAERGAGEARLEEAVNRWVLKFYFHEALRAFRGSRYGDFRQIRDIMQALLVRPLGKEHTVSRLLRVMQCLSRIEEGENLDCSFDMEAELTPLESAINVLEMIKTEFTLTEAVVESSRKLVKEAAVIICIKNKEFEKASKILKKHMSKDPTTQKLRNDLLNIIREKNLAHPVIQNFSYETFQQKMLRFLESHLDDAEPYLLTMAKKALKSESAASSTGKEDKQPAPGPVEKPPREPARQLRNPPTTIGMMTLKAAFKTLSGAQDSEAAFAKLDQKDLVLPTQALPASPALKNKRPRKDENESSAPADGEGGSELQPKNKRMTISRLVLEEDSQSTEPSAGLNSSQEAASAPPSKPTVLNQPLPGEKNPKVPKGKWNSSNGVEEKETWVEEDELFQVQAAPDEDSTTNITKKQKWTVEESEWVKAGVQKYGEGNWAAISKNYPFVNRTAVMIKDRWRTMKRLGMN
UniProt Q9NR30: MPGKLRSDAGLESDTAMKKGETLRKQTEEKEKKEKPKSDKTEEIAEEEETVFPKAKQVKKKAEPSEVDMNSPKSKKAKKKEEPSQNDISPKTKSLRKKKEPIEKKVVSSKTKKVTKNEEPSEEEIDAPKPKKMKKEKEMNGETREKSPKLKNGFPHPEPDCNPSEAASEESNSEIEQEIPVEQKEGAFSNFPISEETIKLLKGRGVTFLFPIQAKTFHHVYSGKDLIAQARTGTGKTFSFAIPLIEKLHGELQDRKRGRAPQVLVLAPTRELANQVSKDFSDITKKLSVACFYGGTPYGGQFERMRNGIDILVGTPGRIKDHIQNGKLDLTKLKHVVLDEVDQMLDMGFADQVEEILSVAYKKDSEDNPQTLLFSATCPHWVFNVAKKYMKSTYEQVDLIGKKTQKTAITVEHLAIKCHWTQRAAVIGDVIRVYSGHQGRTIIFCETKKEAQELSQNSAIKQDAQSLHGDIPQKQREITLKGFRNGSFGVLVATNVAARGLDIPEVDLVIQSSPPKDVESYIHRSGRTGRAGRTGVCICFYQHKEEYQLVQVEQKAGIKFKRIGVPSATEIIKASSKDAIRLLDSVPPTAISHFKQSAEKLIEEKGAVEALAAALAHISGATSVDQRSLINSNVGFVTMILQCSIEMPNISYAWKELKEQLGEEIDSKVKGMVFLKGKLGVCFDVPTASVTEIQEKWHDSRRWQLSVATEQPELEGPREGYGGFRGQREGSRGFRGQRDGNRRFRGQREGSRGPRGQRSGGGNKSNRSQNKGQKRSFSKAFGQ
UniProt P78527: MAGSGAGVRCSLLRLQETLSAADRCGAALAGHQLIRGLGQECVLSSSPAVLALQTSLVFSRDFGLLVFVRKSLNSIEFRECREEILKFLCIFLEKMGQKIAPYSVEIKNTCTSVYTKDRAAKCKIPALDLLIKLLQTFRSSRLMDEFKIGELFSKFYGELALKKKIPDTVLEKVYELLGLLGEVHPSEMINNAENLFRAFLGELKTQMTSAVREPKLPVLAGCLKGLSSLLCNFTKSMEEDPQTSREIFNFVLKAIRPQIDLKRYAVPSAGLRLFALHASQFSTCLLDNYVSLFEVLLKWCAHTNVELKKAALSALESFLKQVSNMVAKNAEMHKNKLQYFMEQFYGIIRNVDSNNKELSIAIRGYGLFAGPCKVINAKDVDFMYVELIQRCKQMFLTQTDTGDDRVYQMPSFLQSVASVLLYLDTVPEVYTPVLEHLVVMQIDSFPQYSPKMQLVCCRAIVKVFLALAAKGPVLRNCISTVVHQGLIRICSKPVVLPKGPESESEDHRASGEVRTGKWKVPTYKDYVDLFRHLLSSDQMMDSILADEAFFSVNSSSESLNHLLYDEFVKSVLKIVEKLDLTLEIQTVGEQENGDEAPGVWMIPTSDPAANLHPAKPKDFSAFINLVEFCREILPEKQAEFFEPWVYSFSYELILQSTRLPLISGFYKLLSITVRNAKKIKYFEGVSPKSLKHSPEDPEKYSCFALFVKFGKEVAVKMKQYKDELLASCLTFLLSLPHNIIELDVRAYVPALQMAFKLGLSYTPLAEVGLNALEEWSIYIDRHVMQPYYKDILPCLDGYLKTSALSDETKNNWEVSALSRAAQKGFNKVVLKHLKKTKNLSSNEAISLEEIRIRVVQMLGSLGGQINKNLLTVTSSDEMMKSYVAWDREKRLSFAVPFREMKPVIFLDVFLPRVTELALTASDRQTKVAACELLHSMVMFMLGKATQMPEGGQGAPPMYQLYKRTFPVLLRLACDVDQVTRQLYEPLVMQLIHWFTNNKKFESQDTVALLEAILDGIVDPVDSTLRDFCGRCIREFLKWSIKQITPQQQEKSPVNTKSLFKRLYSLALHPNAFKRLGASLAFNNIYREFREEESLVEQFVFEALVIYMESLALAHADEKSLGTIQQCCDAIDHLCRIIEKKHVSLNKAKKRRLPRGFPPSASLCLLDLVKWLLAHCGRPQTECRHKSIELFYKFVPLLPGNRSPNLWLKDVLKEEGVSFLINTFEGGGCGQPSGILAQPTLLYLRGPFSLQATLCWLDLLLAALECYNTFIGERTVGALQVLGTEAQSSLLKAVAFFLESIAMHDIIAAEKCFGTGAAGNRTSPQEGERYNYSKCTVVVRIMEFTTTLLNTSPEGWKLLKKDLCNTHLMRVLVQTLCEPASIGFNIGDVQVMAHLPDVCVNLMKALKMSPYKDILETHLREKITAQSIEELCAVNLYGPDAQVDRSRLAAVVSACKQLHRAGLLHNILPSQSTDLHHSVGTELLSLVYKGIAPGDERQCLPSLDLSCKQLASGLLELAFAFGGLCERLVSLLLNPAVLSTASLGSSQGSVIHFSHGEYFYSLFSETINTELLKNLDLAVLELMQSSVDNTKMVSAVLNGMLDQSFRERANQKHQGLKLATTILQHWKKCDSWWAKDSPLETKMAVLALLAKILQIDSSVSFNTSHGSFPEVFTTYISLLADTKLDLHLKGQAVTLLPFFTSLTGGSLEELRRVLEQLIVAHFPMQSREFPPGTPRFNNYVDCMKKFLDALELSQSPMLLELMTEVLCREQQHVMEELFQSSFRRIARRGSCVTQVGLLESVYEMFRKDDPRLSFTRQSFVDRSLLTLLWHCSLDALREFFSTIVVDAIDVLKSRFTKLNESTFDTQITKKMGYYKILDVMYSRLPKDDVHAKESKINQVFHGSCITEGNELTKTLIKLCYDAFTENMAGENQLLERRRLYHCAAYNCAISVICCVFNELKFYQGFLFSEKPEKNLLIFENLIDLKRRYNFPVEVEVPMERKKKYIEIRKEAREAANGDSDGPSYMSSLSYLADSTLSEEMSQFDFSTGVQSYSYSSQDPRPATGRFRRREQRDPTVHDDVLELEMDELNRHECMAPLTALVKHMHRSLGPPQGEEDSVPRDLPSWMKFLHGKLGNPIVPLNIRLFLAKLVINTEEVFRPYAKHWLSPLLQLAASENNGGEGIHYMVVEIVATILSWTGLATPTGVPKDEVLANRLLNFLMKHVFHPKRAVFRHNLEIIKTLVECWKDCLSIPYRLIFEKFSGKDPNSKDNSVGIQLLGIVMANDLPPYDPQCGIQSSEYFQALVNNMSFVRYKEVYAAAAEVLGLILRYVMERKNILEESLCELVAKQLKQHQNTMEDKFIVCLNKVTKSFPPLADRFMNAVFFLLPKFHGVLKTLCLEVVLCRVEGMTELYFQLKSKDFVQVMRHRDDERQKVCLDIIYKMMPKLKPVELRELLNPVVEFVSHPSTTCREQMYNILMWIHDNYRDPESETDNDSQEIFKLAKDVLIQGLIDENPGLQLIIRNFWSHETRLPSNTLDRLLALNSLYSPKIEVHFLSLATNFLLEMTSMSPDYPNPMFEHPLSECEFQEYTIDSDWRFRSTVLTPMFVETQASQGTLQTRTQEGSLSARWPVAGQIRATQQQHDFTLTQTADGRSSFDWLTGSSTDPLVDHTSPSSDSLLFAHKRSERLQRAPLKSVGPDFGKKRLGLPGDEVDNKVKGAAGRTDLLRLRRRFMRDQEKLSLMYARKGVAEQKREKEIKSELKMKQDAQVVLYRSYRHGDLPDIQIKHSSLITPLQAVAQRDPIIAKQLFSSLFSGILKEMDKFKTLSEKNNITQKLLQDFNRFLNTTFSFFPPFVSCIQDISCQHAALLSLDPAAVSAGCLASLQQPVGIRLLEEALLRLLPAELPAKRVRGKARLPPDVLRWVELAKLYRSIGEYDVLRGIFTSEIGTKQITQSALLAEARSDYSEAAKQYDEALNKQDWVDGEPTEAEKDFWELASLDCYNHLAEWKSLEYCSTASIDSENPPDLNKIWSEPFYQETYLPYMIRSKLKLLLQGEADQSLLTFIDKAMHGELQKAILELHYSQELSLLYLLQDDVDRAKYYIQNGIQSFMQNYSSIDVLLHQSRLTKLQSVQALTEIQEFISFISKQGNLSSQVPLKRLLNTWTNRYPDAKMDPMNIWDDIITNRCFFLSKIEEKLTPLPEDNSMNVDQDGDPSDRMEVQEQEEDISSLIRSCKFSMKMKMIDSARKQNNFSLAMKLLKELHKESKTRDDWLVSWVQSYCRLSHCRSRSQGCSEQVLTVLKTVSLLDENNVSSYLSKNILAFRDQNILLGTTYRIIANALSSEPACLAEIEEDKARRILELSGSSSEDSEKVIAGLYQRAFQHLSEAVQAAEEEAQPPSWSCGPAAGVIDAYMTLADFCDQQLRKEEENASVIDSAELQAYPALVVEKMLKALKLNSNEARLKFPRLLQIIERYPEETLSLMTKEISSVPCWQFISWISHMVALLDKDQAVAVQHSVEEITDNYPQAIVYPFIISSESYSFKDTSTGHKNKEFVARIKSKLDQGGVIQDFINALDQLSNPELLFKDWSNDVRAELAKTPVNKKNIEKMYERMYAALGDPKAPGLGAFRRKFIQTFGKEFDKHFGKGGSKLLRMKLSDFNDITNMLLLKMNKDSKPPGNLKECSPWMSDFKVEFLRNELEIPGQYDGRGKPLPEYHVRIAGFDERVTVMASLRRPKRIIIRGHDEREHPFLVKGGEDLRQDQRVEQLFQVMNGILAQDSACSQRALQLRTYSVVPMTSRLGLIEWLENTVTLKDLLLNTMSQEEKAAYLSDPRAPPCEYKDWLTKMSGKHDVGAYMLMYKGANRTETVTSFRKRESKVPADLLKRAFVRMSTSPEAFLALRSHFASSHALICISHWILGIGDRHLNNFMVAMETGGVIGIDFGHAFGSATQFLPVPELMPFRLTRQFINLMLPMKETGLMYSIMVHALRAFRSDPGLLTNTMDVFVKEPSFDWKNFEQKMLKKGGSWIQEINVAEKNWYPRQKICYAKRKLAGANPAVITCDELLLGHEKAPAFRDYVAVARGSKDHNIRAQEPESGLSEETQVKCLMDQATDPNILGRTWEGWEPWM

No constants are given. Whether binding was seen depends on the method and setting. Binding seen in cells or lysates may run through a third protein. These calls come from enrichment with a bait or labelling near it, and not all partners need be listed. For some assays here: Tags and fused reporters may be left off the sequences shown.

With “DDX21, DEAD-box RNA helicase (endogenous, found by IP-MS) (from UniProt Q9NR30 1-783)”, the binding entry in assay [1] is given as “binds”.

As for “PRKDC (endogenous, 293F lysate) (from UniProt P78527 1-4128)”, the binding result in assay [2] is reported as “binds”.

For the origin of these results see publication PMC10104862.
